Results from one PubChem assay

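293T-iDUX4 dual-reporter cells; luminescence of the tet-on Italica luciferase control is read after 24 h.
The test concentration is not given here.
Percent change in the Italica control signal; more negative values mean stronger inhibition, which points to nonspecific, tet-on or cytotoxic effects.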

Values are in %.
Common to all entries: measured here: Italica tet-on control reporter.
Part of the compounds only, not a random draw; the main read-out is not listed here.

Result for C[C@@H]1CCCCO[C@H](CN(C)C(=O)Nc2ccc3c(c2)OCO3)[C@@H](C)CN([C@@H](C)CO)C(=O)c2cc(NC(=O)C3CCCCC3)ccc2O1 was activity change -24.58%. For O=C(C1CCC1)N1C[C@@H]2N[C@H](C1)C2c1ccc(/C=C/c2ccccc2)cc1 (stereo partly specified) the result was activity change -58.09%. C[C@H](CO)N1C[C@H](C)[C@H](CN(C)C(=O)CCC(F)(F)F)OCc2ccccc2-c2c(n(C)c3ccccc23)C1=O gave activity change -82.33%. O=C(Nc1ccc(Cl)c(Cl)c1)N[C@@H]1CC[C@H](CCNC(=O)c2ccc(F)cc2)O[C@@H]1CO read activity change -18.09%. Result for O=C(C[C@H]1C[C@H]2c3cc(NC(=O)C4CCC4)ccc3O[C@H]2[C@H](CO)O1)NCCc1ccccc1 was activity change -14.04%. With COc1ccc2c3c([nH]c2c1)[C@@H](CO)N(Cc1cccc(Cl)c1)CC31CCN(C(C)=O)CC1 the assay gave activity change -46.34%.

For C[C@@H]1CN([C@H](C)CO)C(=O)c2ccccc2-c2ccccc2CO[C@@H]1CN(C)Cc1ccccc1C(F)(F)F the result was activity change -60.9%. Result for C[C@H]1CN([C@@H](C)CO)C(=O)c2c(c3ccccc3n2C)-c2ccccc2CO[C@@H]1CN(C)C(=O)Cc1ccccc1 was activity change -57.63%. COc1ccc(-c2ccc([C@H]3[C@@H](CO)N4CCCCN(C(=O)c5ccc(F)cc5)C[C@H]34)cc2)cc1 gave activity change -35.89%. O=C(C[C@@H]1CC[C@H]2[C@@H](COC[C@H](O)CN2Cc2cc(F)ccc2F)O1)N[C@@H]1CCN(Cc2ccccc2)C1 gave activity change -7.124%. N#Cc1ccc(-c2ccc([C@@H]3[C@@H]4CN(C(=O)Nc5ccc6c(c5)OCO6)C[C@H]3N4)cc2)cc1 gave activity change -51.28%. For COc1ccccc1C#Cc1ccc([C@@H]2[C@@H](CO)N3CCCCN(C(=O)C4CCC4)C[C@@H]23)cc1 the result was activity change -29.72%.

COc1ccc(CN2CC3(CCN(C(=O)Cc4ccncc4)CC3)c3c([nH]c4cc(OC)ccc34)[C@@H]2CO)cc1 read activity change 0.5615%. Result for O=C(C[C@H]1C[C@@H]2c3cc(NC(=O)Nc4ccc(C(F)(F)F)cc4)ccc3O[C@@H]2[C@@H](CO)O1)NCc1ccc2c(c1)OCO2 was activity change -58.66%. Result for O=C(c1ccc(F)cc1)N1CC(=O)N2[C@H](CO)[C@@H](c3ccc(C#CC4CCCCC4)cc3)[C@H]2C1 was activity change -4.549%. Result for Cc1ccccc1-c1ccccc1[C@H]1[C@@H](C#N)N(C(=O)c2ccc(F)cc2)[C@H]1CO was activity change -17.9%. For O=C(Cc1ccccc1)N1CC(=O)N2[C@H](CO)[C@H](c3ccc(C#CCc4ccccc4)cc3)[C@H]2C1 the result was activity change -14.72%. With Cc1ccccc1S(=O)(=O)N1C[C@H](O)COC[C@H]2O[C@H](CC(=O)NCc3ccccc3Cl)CC[C@@H]21 the assay gave activity change -8.908%.

With COc1ccc(CN2CC3(CN(Cc4ccccc4OC)C3)c3c([nH]c4cc(OC)ccc34)[C@H]2CO)cc1 the assay gave activity change -26.25%. C[C@@H]1CN([C@@H](C)CO)C(=O)CCCn2nncc2CO[C@@H]1CN(C)Cc1ccc(Oc2ccccc2)cc1 gave activity change -22.27%. COc1ccc2c3c(n(C)c2c1)[C@@H](CO)N(C(=O)Nc1cccc(F)c1)CC31CN(Cc2nccs2)C1 read activity change -17.8%. With N#Cc1ccc(-c2ccc3c(c2)[C@H]2[C@H](CCN2Cc2cncnc2)[C@H](CO)N3)cc1 the assay gave activity change -22.61%. O=C(C[C@H]1CC[C@H]2[C@@H](COC[C@H](O)CN2Cc2ccc(C(F)(F)F)cc2)O1)N1CCc2ccccc2C1 read activity change -12.4%. O=C(C[C@H]1CC[C@@H](NC(=O)Nc2cc(F)ccc2F)[C@H](CO)O1)Nc1ccc(-c2ccccc2)cc1 gave activity change -18.66%.

With COc1ccc2c3c(n(C)c2c1)[C@H](CO)N(C(=O)Nc1ccc(F)cc1)CC31CCN(C(=O)c2ccc3c(c2)OCO3)CC1 the assay gave activity change -39.9%.

3 of the entries, repeated:

For O=C(C[C@H]1C[C@@H]2c3cc(NC(=O)Nc4ccc(C(F)(F)F)cc4)ccc3O[C@@H]2[C@@H](CO)O1)NCc1ccc2c(c1)OCO2 the result was activity change -58.66%.
For N#Cc1ccc(-c2ccc3c(c2)[C@H]2[C@H](CCN2Cc2cncnc2)[C@H](CO)N3)cc1 the result was activity change -22.61%.
For COc1ccc2c3c(n(C)c2c1)[C@H](CO)N(C(=O)Nc1ccc(F)cc1)CC31CCN(C(=O)c2ccc3c(c2)OCO3)CC1 the result was activity change -39.9%.

From PubChem BioAssay record AID1224904 (Broad Institute, 2016).